Assay results from publication PMC8739261.
No constants are given. Whether binding was seen depends on the method and setting. Some entries that bind do so weakly or less than the wild type.

Target: T1, CD166 (human (endogenous in human cell lines and monocytes)) (UniProt Q13740)
T1 sequence: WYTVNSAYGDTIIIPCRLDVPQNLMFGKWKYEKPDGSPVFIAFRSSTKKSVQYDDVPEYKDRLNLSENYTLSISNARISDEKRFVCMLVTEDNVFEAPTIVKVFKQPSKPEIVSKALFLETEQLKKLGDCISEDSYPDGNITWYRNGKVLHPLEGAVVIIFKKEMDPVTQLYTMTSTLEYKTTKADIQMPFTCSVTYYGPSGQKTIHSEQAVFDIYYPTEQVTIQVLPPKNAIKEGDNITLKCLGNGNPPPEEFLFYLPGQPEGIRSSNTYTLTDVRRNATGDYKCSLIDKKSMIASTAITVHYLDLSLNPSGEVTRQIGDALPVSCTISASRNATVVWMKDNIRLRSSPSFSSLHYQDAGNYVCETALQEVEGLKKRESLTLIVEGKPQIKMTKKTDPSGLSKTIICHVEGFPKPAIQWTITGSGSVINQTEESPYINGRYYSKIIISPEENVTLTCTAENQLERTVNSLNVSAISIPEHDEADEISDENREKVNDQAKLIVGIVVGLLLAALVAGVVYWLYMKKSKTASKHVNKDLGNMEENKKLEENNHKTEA
Test: flow cytometry on cells; 2 x 10^5 cells of a panel of human cell lines (Caco-2, Hep G2, Raji, K562, HL-60, THP-1, HeLa, E6.1) incubated with 3 ug recombinant sCD6 in binding medium (TBS, 1% BSA, 5 mM Ca2+) for 1 h at 4 C; detected with anti-HIS antibody and Alexa Fluor 647 anti-mouse antibody; only the binder purified

binding: binds
B1: recombinant soluble extracellular CD6 (sCD6) (domain or fragment, UniProt P30203 25-398)
chain: DQLNTSSAESELWEPGERLPVRLTNGSSSCSGTVEVRLEASWEPACGALWDSRAAEAVCRALGCGGAEAASQLAPPTPELPPPPAAGNTSVAANATLAGAPALLCSGAEWRLCEVVEHACRSDGRRARVTCAENRALRLVDGGGACAGRVEMLEHGEWGSVCDDTWDLEDAHVVCRQLGCGWAVQALPGLHFTPGRGPIHRDQVNCSGAEAYLWDCPGLPGQHYCGHKEDAGAVCSEHQSWRLTGGADRCEGQVEVHFRGVWNTVCDSEWYPSEAKVLCQSLGCGTAVERPKGLPHSLSGRMYYSCNGEELTLSNCSWRFNNSNLCSQSLAARVLCSASRSLHNLSTPEVPASVQTVTIESSVTVKIENKESRE
